The record followed here is publication PMC7862700.

The entries are a selection whose mix differs from that of the whole data set. At the low end of the ranking the order means little.

The target of the assay is SPI1 (UniProt P17947). As to the kind of experiment: DAPPL (digital affinity profiling via proximity ligation, sequencing). The note with it: 10 mM Tris-HCl pH 7.5, 50 mM NaCl, 1 mM DTT, 4% glycerol, room temperature, 30 min; GST-TFs on glutathione beads, 16-mer random dsDNA library, 0.1% …; high values mean tight binding; double strand, one strand shown; scale: fold enrichment (6-mer frequency, TF over GST control).
Turning to CAATGT, the binding signal is 0.991.

TGAAGG had a binding signal of 0.909.

For the sequence GTCTAA, the binding signal is 1.08.

With TAGGCA, the binding signal came out at 0.979.

Sequence CAACCG displayed a binding signal of 0.982.

Sequence TAGCGT had a binding signal of 0.984.

In turn, CACATG registered a binding signal of 1.11.

Sequence AAGGGT registered a binding signal of 1.05.

The sequence ACGCGA displayed a binding signal of 0.964.

GGCCCT had a binding signal of 0.973.

TTCCAC yielded a binding signal of 1.42.

In the case of AAATGC, the binding signal stood at 1.48.

AGGTAA: the binding signal worked out at 0.91.

In turn, ATCAGA displayed a binding signal of 0.876.

Turning to AGACTC, the binding signal was determined as 0.906.

CAGCAT had a binding signal of 0.941.

As for TGGCCA, the binding signal was 1.05.

As to CCAAGC, the binding signal amounted to 0.956.

GTGCCC displayed a binding signal of 1.07.

Sequence TTGTTG displayed a binding signal of 1.15.

Consider TTTCCA, for which the binding signal was 1.37.

The sequence TAAGCA registered a binding signal of 0.986.

With GAGAAA, the binding signal worked out at 0.708.

The sequence GATAAG displayed a binding signal of 0.861.

The sequence AGTGGT showed a binding signal of 1.42.

For TATAAT, the binding signal amounted to 1.15.

The sequence AGCGCT yielded a binding signal of 0.982.

Sequence TAACCA returned a binding signal of 1.06.

TGAAAT registered a binding signal of 1.02.

In the case of AAAGTC, the binding signal came out at 0.982.

Take CTGAGG: the binding signal stood at 0.814.

In turn, GCCACA gave a binding signal of 0.894.

Sequence TCATTG displayed a binding signal of 0.965.

The sequence CCAAGT registered a binding signal of 0.89.

In turn, TGAACG came in with a binding signal of 0.958.

In turn, CCTGAA came in with a binding signal of 1.35.

On to GATCCA, for which the binding signal worked out at 0.945.

On to ATGGCA, for which the binding signal stood at 1.21.

As for GTCACC, the binding signal came to 0.897.
